These are yes or no findings as the source states them, for the method shown. Binding can be weak; no strength is given.
Target: biotinylated GTPγS-bound transducin α subunit (Tα-S*), frog (frog (Rana catesbeiana)) (UniProt P38407)
Assay: SPR; biotinylated Tα-S* immobilised on SA chip (~2300 RU); recombinant PDEγ or purified PDE injected at 1-16 nM on the same chip; binding and dissociation terminated before completion; Biacore X100, 25 °C, K-gluc buffer with 0.005% Tween 20, no cGMP; both purified

By UniProt entry, the sequences of proteins in these tests, tags left out. Where a name states a change or a piece, a line headed by the entry shows the natural chain unless it says otherwise.
UniProt P38407: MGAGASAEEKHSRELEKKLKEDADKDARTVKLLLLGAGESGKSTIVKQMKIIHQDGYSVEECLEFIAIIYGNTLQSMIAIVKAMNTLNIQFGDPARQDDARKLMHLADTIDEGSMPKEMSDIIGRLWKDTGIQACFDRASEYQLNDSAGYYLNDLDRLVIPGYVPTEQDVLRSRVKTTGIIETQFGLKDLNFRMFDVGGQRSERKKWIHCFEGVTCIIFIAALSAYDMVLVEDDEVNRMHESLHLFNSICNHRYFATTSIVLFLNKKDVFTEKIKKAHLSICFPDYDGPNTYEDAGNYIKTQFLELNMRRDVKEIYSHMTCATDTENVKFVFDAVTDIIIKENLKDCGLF
UniProt H1AAN5: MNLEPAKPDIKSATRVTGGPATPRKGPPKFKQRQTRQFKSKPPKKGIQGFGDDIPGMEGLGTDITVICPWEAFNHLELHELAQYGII

binding: binds
Substance: recombinant frog PDEγ (inhibitory γ subunit of rod cGMP phosphodiesterase) (from UniProt H1AAN5)
